Assay results from publication PMC5072578.

By UniProt entry, the sequences of proteins in these tests, tags left out.
UniProt P42224: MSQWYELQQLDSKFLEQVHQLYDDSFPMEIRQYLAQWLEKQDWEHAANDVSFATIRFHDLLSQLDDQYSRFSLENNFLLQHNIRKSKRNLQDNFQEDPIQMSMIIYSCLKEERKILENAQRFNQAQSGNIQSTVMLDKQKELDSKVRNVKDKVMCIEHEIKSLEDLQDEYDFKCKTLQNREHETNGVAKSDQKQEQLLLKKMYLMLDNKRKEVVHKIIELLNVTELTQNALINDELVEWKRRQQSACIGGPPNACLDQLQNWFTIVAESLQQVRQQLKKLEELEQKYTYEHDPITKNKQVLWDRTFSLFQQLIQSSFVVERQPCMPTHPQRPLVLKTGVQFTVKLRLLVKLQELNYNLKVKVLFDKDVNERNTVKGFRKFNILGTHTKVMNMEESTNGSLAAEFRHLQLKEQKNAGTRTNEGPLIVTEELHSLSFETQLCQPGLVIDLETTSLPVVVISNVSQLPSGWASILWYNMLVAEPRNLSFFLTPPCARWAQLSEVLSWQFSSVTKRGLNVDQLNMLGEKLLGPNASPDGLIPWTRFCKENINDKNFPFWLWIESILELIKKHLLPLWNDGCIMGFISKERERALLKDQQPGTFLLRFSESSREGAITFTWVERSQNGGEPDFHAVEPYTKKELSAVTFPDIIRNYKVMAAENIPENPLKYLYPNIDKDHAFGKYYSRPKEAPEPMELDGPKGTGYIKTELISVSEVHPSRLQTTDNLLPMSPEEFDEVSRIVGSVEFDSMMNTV

Target: T1, Flag-NLK (Nemo-like kinase) (mouse) (UniProt O54949)
T1 sequence: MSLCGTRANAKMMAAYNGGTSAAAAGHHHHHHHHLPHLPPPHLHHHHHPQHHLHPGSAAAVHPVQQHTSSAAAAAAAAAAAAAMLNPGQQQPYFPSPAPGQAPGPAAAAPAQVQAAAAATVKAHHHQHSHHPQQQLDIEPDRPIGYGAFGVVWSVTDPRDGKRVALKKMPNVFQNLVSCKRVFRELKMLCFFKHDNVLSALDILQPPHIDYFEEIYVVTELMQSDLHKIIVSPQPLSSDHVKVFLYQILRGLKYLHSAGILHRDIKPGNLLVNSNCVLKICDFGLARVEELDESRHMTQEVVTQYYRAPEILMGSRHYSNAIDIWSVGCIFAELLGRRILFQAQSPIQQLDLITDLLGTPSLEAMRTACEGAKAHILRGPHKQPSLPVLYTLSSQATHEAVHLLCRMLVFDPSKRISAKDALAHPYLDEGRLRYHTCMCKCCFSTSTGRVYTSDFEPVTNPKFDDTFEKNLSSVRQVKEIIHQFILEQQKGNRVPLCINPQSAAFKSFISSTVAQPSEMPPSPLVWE
Test: affinity purification with mass spectrometry; lysate of HEK293 cells transfected with Flag-NLK (20 mM HEPES pH 7.4, 0.5% Triton X-100, 150 mM NaCl, 1 mM EDTA); anti-Flag M2 magnetic beads, 1 hour at room temperature; SDS-PAGE, silver staining, unique proteins identified by mass spectrometry; control: empty Flag plasmid

binding: binds
Substance: Stat1 (endogenous, HEK293 cells) (from UniProt P42224 1-750)

These are yes or no findings as the source states them, for the method shown. Binding seen in cells or lysates may run through a third protein. A yes stands for co-enrichment or nearness to the bait. Other partners may have been found. Tags and fused reporters may be left off the sequences shown.
